Experimental data published in paper PMC7618404.
Results are given in words; binding and its absence hold for the method and conditions named. In cells and extracts the contact can be indirect. These calls come from enrichment with a bait or labelling near it, and not all partners need be listed.

Chains of the proteins cited; added tags and fusions are not shown.
UniProt P08758: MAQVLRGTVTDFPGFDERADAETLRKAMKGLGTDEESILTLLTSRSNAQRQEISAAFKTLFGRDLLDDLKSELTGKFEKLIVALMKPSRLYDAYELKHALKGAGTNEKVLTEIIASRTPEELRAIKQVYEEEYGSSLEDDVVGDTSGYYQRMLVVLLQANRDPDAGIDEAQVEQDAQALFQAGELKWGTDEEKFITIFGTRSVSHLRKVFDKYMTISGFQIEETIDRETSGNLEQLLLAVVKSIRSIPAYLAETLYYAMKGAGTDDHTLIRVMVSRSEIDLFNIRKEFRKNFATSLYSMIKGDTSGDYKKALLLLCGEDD

Target: Myc-tagged WT-PKCα (human) (UniProt P17252)
Test: affinity purification with mass spectrometry; Myc-PKCα WT, D463H or D463N from transfected U87MG cells captured on Myc-trap agarose; lysis in 20 mM Tris pH 8.0, 130 mM NaCl, 1% Triton X-100, 1 mM DTT, 10 mM NaF; bead-associated kinase reaction with 1 mM Mg-ATP before SDS-PAGE; label-free quantitation (MaxQuant LFQ); proteins found in empty-vector controls excluded

| Substance | binding |
| --- | --- |
| PKCγ (from UniProt P05129 1-697) | binds |
| annexin V (from UniProt P08758 1-320) | binds |
